Results taken from publication PMC5622079, “Control of leucine-dependent mTORC1 pathway through chemical intervention of leucyl-tRNA synthetase and RagD interaction” (Nature Communications, 2017).
These are yes or no findings as the source states them, for the method shown. In cells and extracts the contact can be indirect. Some entries that bind do so weakly or less than the wild type. Each block holds one substance with its values, some of them ahead of it.

Sequences of proteins named here, by UniProt entry; tags and fusion partners are left off. A change or cut given only in a name is not applied to a line headed by its entry. A line that says so, or that is headed by a name, gives the form on record, which may keep a tag or linker. Residues count along the entry.
UniProt Q9P2J5: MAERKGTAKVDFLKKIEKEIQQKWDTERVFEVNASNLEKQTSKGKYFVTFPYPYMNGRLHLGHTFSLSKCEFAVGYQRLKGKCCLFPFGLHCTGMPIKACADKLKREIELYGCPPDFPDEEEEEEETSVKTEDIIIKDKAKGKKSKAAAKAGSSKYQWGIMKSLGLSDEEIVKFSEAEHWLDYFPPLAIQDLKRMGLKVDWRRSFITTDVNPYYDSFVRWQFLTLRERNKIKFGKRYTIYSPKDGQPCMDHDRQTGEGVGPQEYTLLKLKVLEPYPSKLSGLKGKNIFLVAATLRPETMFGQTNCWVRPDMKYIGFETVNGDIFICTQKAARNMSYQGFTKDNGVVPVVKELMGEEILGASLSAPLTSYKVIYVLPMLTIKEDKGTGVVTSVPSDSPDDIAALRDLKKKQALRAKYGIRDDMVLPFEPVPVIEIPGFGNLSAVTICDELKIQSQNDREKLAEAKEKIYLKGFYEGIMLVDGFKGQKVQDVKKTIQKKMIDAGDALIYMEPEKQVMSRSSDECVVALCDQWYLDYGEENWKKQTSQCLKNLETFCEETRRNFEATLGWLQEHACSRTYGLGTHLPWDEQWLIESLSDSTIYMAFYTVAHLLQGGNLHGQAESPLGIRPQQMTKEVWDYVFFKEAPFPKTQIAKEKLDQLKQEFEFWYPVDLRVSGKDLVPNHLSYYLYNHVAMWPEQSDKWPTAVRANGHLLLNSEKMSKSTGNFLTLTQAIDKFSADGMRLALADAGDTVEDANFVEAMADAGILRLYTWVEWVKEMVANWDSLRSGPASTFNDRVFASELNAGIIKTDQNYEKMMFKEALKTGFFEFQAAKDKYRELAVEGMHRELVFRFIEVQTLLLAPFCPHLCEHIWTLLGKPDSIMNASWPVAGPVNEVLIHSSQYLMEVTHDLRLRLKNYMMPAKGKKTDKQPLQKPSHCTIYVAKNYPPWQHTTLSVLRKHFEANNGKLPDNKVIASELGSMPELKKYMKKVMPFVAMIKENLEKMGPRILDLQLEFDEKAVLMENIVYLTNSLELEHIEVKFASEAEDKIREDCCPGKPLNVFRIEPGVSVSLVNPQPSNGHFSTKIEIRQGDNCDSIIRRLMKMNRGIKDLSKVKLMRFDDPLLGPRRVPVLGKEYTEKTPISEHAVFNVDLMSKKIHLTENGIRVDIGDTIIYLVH
GST-LRS (aa 951–1176), wild type: residues 951-1176 of Q9P2J5
GST-LRS (957–1176 aa): residues 957-1176 of Q9P2J5
GST-LRS (aa 951–1176) K957A (Q9P2J5, form named): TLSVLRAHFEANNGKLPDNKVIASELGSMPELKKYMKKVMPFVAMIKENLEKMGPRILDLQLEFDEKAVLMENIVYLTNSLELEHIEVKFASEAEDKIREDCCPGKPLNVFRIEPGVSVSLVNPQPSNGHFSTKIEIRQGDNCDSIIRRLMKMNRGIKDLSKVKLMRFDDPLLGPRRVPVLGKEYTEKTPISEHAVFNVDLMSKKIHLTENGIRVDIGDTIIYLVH
GST-LRS (aa 951–1176) R956A (Q9P2J5, form named): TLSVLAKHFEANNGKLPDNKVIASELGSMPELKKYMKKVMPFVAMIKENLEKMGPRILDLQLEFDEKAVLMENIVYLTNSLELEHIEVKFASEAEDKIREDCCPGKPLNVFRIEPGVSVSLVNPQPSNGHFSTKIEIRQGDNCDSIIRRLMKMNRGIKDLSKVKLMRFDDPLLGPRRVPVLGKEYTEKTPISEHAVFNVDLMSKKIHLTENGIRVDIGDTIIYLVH
GST-LRS (aa 951–1176) S974A (Q9P2J5, form named): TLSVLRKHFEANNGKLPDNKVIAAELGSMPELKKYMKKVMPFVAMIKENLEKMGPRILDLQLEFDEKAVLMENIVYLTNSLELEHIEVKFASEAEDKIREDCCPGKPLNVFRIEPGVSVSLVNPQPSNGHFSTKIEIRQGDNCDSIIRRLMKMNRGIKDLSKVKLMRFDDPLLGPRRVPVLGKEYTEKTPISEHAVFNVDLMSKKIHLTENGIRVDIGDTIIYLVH
UniProt Q9NQL2: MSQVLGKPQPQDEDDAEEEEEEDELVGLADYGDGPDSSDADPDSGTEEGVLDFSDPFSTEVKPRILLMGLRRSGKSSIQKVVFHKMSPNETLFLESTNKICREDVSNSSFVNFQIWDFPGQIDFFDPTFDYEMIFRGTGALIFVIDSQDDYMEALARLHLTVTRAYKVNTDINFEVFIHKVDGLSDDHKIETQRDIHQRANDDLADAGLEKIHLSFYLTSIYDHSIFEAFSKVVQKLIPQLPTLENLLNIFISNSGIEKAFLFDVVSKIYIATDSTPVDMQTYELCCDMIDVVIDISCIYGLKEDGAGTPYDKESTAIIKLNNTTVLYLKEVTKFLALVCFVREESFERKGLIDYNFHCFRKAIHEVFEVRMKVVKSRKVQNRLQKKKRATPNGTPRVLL

Tests used:
[1] = molecular target: GST-LRS (aa 951–1176) K957A (human) (UniProt Q9P2J5); assay: pull-down; purified GST or GST-LRS (aa 951–1176), WT or alanine mutants, incubated with Myc-RagD WT-transfected SW620 cell lysates; precipitated with glutathione sepharose beads; anti-Myc immunoblot; only the target purified
[2] = molecular target: GST-LRS (aa 951–1176) R956A (human) (UniProt Q9P2J5); assay: as above
[3] = molecular target: GST-LRS (aa 951–1176), wild type (human) (UniProt Q9P2J5); assay: as above
[4] = molecular target: GST-LRS (aa 951–1176) S974A (human) (UniProt Q9P2J5); assay: as above
[5] = molecular target: GST-LRS (aa 951–1176) K957A (human) (UniProt Q9P2J5); assay: pull-down; LRS WT and mutants with Myc-RagD, with or without BC-LI-0186; the text says in vitro pull-down, the legend co-immunoprecipitation
[6] = molecular target: GST-LRS (aa 951–1176) R956A (human) (UniProt Q9P2J5); assay: as above
[7] = molecular target: GST-LRS (aa 951–1176), wild type (human) (UniProt Q9P2J5); assay: as above
[8] = molecular target: GST-LRS (aa 951–1176) S974A (human) (UniProt Q9P2J5); assay: as above
[9] = molecular target: GST-LRS (957–1176 aa) (human) (UniProt Q9P2J5); assay: pull-down; in vitro pull-down of GST-LRS (957–1176 aa) and Myc-RagD with a series of BC-LI-0186 concentrations; band intensity of Myc-RagD quantified; only the target purified
[10] = molecular target: Myc-tagged LRS WT (human) (UniProt Q9P2J5); assay: co-IP; SW620 cells co-transfected with Myc-LRS (WT, S974A or S953A) and HA-RagD WT; treated or not with 10 μM BC-LI-0186 for 1 h; immunoprecipitation with anti-Myc antibody
[11] = molecular target: Myc-tagged LRS S953A (human) (UniProt Q9P2J5); assay: as above
[12] = molecular target: Myc-tagged LRS S974A (human) (UniProt Q9P2J5); assay: as above
[13] = molecular target: Leucyl-tRNA synthetase (LRS), endogenous (human) (UniProt Q9P2J5); assay: co-IP; endogenous proteins; cells treated or not with 10 μM BC-LI-0186 (or BC-LI-0198) for 1 h; lysates immunoprecipitated with anti-LRS, anti-RagD or anti-mTOR antibodies; immunoblot

binding [1]: binds
binding [2]: binds
binding [3]: binds
binding [4]: binds
binding [5]: binds
binding [6]: binds
binding [7]: binds
binding [8]: binds
binding [9]: binds
Substance: Myc-RagD WT (from UniProt Q9NQL2 1-400)

binding [10]: binds
binding [11]: binds
binding [12]: binds
Substance: HA-tagged RagD WT (from UniProt Q9NQL2 1-400)

binding [13]: binds
Substance: RagD, endogenous (from UniProt Q9NQL2 1-400)
